Source: publication PMC4547097
These are yes or no findings as the source states them, for the method shown. In cells and extracts the contact can be indirect. Some results given as binding are weak or reduced against the parent protein; the word gives no strength. Sequences can lack the tags named with a protein.

The chains behind the UniProt entries cited, without tags or fusion partners. Where a name states a change or a piece, a line headed by the entry shows the natural chain unless it says otherwise. A line that says so, or that is headed by a name, gives the form on record, which may keep a tag or linker. Residues count along the entry.
UniProt P32300: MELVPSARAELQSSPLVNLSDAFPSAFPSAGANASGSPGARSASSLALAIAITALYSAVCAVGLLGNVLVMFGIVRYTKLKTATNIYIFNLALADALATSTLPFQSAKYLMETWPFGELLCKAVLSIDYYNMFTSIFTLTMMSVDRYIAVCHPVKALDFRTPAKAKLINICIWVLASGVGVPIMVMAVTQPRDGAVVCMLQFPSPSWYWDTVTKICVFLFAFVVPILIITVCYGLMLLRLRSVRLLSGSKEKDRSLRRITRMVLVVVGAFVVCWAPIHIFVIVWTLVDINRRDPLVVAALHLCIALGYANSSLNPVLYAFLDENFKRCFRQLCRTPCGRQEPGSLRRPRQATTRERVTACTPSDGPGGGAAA
UniProt P21728: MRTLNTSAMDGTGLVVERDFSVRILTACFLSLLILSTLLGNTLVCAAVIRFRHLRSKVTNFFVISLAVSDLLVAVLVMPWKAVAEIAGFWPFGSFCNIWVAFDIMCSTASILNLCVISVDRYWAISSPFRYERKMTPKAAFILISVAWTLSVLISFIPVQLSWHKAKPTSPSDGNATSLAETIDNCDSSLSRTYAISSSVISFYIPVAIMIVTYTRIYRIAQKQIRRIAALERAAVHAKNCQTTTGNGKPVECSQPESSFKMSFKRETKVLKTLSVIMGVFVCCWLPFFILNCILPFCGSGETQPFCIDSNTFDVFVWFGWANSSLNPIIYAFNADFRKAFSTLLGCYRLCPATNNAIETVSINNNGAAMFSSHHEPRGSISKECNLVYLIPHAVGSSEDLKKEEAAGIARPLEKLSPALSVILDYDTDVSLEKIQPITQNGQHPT
Flag-tagged D1R with internal deletion of residues 381-395 (P21728, form named): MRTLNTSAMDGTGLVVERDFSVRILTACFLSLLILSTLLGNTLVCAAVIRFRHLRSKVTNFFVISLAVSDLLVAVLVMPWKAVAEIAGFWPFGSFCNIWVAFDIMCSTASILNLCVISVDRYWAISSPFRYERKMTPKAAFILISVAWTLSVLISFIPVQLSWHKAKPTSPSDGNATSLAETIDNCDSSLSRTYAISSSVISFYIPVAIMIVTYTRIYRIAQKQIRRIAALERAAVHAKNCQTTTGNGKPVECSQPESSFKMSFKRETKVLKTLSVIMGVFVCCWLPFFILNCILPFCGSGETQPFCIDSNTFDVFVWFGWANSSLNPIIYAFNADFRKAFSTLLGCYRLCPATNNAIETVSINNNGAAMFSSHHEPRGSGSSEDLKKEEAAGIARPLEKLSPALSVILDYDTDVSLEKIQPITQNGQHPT

What was measured:
Assay in all cases: co-IP; transfected cells lysed in 0.2% Triton X-100, 200 mM NaCl, 50 mM Tris pH 7.4, 1 mM CaCl2; the Flag-tagged protein precipitated with anti-Flag M2 affinity gel at 4°C for 1 hr; HA-IFT57 detected by anti-HA blot; D1R-IFT57 also tested after control or Rab23 siRNA
[1] = target: Flag-tagged delta opioid peptide receptor (UniProt P32300)
[2] = target: Flag-tagged wild-type D1-type dopamine receptor (UniProt P21728)
[3] = target: T1, Flag-KIF17 (UniProt Q9P2E2)
T1 sequence: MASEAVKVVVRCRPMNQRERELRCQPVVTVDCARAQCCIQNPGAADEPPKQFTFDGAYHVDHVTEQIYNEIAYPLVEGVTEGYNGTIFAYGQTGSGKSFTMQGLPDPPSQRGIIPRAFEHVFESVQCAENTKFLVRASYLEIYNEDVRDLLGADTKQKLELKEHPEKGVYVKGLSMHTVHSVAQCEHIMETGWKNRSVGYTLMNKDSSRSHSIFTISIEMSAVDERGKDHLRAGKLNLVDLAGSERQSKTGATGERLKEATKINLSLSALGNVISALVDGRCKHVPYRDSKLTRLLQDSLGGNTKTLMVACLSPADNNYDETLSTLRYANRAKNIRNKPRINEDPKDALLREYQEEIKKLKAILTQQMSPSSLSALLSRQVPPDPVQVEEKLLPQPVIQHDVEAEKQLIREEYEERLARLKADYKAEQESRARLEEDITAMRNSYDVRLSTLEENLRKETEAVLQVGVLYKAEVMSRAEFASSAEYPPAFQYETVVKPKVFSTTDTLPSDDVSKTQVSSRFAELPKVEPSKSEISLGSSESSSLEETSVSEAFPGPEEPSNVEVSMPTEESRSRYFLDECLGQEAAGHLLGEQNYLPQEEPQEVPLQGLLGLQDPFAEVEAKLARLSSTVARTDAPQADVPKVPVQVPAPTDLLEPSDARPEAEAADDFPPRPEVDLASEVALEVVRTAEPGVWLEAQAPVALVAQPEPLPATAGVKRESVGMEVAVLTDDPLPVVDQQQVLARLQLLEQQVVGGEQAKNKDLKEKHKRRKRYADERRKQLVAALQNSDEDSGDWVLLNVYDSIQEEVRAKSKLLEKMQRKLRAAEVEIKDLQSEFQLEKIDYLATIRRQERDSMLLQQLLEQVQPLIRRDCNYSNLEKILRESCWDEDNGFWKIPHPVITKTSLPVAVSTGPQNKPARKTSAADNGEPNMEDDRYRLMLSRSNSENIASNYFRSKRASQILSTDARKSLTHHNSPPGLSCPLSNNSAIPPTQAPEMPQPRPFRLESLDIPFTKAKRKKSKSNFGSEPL

[4] = target: Flag-tagged D1R with internal deletion of residues 381-395 (UniProt P21728)

B1: N-terminally HA-tagged IFT57 (protein, UniProt Q8BXG3 1-429)
chain: MAAAAAVIPPSGLDDGVSRARGEGAGEAVVERGPGAAYHMFVVMEDLVEKLKLLRYEEELLRKSNLKPPSRHYFALPTNPGEQFYMFCTLAAWLINKTGRAFEQPQEYDDPNATISNILSELRSFGRTADFPPSKLKSGYGEQVCYVLDCLAEEALKYIGFTWKRPSYPVEELEEETVPEDDAELTLSKVDEEFVEEETDNEENFIDLNVLKAQTYRLDTNESAKQEDILESTTDAAEWSLEVERVLPQLKVTIRTDNKDWRIHVDQMHQHKSGIESALKETKGFLDKLHNEISRTLEKIGSREKYINNQLEHLVQEYRGAQAQLSEARERYQQGNGGVTERTRLLSEVTEELEKVKQEMEEKGSSMTDGTPLVKIKQSLTKLKQETVQMDIRIGVVEHTLLQSKLKEKCNMTRDMHAAVTPESAIGFY
- binding [1]: no binding
- binding [2]: binds
- binding [3]: binds
- binding [4]: binds
